38 targets from the supplement of paper PMC10849652 can be followed below.

By UniProt entry, the sequences of proteins in these tests, tags left out. Where a name states a change or a piece, a line headed by the entry shows the natural chain unless it says otherwise.
UniProt Q3SY69: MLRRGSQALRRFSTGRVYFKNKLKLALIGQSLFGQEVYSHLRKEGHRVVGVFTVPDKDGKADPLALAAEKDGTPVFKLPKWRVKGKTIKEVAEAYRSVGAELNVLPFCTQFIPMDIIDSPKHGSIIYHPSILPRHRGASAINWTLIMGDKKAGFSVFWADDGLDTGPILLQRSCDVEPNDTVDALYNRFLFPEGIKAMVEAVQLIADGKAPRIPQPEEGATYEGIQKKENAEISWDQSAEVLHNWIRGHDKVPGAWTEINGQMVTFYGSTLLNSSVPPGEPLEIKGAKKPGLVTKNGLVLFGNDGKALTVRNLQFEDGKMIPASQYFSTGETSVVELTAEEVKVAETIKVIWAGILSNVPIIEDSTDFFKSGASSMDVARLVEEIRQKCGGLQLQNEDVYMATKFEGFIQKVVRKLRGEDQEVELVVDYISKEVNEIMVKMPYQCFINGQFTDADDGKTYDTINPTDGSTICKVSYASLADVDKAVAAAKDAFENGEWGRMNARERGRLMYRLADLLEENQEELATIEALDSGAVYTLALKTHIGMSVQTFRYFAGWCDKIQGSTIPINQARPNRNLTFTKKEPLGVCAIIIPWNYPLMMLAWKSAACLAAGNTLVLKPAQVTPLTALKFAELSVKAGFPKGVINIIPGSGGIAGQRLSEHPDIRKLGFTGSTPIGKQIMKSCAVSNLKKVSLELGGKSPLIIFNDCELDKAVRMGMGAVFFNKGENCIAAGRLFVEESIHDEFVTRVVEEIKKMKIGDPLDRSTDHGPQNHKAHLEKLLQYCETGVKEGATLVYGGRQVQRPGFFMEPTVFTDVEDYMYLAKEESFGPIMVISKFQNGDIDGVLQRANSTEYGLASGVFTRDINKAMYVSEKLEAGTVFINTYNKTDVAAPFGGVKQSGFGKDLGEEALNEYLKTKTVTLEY
UniProt Q9BRR6: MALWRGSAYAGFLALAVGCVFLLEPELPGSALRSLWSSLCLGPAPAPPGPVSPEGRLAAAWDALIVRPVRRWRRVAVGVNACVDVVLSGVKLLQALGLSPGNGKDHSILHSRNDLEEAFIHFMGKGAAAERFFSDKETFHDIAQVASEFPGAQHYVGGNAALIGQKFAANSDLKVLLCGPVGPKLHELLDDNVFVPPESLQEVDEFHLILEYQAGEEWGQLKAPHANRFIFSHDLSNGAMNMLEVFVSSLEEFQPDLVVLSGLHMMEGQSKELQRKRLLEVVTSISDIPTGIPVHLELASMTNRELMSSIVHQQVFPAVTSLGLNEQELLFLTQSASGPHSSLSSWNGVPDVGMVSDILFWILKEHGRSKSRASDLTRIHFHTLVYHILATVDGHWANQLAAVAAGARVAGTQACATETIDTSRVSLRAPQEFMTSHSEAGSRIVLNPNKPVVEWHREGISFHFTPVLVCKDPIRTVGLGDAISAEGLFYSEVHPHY
UniProt P42330: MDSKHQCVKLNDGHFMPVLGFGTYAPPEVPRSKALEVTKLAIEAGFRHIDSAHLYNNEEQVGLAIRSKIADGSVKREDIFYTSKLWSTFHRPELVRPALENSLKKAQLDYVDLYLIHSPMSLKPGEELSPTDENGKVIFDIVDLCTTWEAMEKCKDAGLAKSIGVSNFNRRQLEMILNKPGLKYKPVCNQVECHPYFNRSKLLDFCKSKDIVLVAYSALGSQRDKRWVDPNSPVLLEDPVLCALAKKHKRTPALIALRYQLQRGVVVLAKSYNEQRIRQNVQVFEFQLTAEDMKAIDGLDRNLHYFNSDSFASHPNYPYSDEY
UniProt Q9Y3D8, whole entry, looked up: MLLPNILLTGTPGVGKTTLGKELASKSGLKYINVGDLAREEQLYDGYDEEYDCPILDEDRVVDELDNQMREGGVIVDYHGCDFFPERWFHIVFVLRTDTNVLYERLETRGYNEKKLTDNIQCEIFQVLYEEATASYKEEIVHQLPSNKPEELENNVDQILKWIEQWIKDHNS
UniProt P30566: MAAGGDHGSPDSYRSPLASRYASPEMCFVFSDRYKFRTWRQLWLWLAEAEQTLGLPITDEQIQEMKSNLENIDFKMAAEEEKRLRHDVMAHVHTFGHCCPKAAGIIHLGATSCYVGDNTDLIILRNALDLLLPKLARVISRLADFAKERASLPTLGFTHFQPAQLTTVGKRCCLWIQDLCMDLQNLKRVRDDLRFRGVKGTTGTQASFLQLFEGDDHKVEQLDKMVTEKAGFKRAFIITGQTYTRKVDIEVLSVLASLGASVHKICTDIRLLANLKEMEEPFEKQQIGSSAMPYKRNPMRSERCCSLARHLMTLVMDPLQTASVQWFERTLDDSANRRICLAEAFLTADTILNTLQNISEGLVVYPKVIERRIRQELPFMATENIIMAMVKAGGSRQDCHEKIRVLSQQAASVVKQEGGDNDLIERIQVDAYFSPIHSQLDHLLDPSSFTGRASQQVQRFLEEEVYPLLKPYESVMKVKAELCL
UniProt Q12904: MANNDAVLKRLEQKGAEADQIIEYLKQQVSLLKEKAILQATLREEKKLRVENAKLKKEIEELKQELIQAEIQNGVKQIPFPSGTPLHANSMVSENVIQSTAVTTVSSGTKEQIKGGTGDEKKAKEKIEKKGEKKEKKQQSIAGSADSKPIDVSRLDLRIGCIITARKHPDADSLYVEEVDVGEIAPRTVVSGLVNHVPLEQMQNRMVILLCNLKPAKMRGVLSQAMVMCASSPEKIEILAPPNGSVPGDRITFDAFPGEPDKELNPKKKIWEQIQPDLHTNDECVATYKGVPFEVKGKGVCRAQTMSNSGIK
UniProt Q8WYP5: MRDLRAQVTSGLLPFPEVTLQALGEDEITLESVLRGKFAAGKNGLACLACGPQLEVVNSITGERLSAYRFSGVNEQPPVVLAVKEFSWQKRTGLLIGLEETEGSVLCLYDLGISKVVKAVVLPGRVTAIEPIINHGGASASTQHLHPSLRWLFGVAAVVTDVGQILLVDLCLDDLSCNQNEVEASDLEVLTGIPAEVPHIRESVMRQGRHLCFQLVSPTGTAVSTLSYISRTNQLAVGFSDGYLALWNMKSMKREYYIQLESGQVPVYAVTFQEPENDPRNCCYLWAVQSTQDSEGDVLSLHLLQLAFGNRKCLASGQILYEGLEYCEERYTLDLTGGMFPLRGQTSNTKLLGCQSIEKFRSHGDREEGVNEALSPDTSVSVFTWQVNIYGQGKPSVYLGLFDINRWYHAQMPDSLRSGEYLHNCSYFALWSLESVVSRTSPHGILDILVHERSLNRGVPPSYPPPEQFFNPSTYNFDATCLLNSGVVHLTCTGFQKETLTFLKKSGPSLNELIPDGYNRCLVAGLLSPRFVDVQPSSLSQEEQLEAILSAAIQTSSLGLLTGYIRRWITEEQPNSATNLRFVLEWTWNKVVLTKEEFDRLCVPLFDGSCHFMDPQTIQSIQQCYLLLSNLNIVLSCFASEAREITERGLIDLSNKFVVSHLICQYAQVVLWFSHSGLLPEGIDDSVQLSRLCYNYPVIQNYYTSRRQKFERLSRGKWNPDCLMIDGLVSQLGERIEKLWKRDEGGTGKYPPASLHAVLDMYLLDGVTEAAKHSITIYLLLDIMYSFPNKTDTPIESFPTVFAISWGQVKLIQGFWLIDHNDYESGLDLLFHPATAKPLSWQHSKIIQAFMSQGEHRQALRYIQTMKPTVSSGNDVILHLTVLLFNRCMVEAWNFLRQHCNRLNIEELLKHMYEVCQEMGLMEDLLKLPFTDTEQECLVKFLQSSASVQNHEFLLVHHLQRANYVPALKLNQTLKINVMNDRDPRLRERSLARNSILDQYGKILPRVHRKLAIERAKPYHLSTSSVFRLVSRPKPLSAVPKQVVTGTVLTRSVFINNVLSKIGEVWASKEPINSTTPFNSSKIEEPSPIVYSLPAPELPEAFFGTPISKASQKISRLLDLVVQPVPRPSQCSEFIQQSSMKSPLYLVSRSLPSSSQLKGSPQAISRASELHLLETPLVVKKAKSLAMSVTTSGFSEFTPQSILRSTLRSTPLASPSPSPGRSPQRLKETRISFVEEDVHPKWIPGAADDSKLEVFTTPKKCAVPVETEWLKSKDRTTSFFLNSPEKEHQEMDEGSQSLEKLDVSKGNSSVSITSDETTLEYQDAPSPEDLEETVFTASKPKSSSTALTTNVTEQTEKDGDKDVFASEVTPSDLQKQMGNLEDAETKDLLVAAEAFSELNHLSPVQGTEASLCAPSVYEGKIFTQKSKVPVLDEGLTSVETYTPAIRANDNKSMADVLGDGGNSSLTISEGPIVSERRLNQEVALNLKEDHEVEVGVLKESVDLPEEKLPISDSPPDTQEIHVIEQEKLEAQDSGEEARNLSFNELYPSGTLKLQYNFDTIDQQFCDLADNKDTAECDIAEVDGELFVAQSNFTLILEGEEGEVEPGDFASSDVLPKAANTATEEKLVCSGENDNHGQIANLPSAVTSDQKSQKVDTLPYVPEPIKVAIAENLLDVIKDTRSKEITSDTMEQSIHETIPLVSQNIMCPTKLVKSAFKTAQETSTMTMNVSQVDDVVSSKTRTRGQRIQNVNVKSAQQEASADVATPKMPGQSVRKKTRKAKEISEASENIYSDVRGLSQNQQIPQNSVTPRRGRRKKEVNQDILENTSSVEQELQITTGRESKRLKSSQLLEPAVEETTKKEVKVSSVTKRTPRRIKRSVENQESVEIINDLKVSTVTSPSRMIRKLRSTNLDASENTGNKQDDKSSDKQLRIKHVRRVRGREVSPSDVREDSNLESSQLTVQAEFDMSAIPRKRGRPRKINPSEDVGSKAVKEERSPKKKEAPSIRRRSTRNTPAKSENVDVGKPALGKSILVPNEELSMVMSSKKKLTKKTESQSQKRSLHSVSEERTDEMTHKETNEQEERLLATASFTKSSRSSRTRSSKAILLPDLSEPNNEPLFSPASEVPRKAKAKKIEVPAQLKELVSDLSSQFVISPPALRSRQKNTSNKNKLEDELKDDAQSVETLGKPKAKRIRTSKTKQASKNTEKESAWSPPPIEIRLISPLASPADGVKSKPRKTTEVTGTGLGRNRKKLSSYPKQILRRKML
UniProt Q9H6U8: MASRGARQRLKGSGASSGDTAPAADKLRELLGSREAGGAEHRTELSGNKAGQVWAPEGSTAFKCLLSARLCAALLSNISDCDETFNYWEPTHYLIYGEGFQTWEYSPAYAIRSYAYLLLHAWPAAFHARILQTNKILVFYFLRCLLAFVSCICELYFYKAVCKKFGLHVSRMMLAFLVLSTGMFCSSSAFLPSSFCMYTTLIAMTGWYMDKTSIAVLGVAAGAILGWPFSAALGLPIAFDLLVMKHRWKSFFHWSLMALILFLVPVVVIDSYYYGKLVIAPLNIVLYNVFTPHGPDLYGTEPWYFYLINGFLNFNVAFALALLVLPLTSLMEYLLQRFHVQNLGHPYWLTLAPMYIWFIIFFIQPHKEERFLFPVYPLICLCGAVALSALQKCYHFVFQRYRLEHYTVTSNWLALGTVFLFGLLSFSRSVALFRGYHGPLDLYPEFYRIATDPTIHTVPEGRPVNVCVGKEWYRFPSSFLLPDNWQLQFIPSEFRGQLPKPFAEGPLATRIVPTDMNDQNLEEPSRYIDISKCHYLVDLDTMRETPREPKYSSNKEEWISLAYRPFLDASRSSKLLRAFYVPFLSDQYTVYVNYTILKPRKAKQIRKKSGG
UniProt O95433, whole entry, looked up: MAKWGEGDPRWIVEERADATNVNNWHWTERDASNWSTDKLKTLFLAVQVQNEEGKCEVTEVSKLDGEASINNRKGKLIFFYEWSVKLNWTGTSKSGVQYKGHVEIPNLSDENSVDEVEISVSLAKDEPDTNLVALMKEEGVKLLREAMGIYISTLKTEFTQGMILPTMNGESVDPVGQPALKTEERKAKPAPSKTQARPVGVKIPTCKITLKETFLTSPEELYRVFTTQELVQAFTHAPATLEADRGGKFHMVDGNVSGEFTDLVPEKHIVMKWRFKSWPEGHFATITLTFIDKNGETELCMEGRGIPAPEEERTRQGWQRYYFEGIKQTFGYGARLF
UniProt Q9Y303: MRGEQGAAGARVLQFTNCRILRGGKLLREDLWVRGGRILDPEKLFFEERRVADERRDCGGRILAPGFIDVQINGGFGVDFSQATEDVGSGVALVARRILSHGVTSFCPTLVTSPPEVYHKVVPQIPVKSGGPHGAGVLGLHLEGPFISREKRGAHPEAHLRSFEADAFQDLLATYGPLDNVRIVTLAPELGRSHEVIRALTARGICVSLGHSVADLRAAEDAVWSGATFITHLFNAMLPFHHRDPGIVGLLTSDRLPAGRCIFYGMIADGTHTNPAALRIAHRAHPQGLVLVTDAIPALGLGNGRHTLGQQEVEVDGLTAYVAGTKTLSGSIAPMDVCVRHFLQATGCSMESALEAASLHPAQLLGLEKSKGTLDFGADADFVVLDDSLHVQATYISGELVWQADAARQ
UniProt Q9BV57: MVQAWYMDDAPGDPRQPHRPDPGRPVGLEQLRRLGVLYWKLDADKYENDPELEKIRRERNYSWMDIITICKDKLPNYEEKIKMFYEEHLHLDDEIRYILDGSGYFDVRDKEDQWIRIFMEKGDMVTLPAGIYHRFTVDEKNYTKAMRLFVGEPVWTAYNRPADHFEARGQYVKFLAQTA

Some of the results follow.

Compound in the first assay: C1=CC=C(C=C1)[C@H](COC2=CC3=C(C=C2)NC(=O)N3)NC(=O)C4=CC=CN(C4=O)CC5=CC(=C(C=C5)F)F
Nature of the assay: log2 fold change, soluble protein after heating vs DMSO (PISA); higher = thermal stabilisation; K562 cells, 10 uM, 30 min; active = over 0.2 and 3.5 SD of the protein, either way, in both replicates (recomputed). Summed up: (§1)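 K562 cells at 2×10^6 cells/mL were treated for 30 min with 10 μM compound, and aliquots were heated for 3 min over 48°C-58°C before pooling. Extraction used PBS with 0.5% NP-40 at 4°C, and soluble protein was the supernatant after 21,000xg for 90 min, measured by TMTpro 16plex LC-MS/MS with channel sums equalised. Thermal stability values, relative to control samples and from duplicates, are log2 fold changes.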
In the case of AGL (UniProt P35573), the log2 fold change was inactive: -0.024.

In the case of ALDH1L2 (UniProt Q3SY69), the log2 fold change was inactive: -0.132.

With AFG1L (UniProt Q8WV93), the log2 fold change was inactive: 0.025.

For ADPGK (UniProt Q9BRR6), the log2 fold change is inactive: -0.036.

Turning to ADD2 isoform 9 (UniProt P35612), the log2 fold change was inactive: 0.02.

AMN1 (UniProt Q8IY45): the log2 fold change was inactive: 0.055.

As to AKR1C3 (UniProt P42330), the log2 fold change is inactive: 0.155.

AGPS (UniProt O00116): the log2 fold change is inactive: -0.046.

As to ADPRHL2 (UniProt Q9NX46), the log2 fold change was inactive: -0.09.

With AFF4 (UniProt Q9UHB7), the log2 fold change is inactive: -0.182.

Take AK6 (UniProt Q9Y3D8): the log2 fold change was inactive: -0.043.

Consider AIMP2 (UniProt Q13155), for which the log2 fold change is inactive: 0.037.

In the case of ANAPC1 (UniProt Q9H1A4), the log2 fold change is inactive: -0.007.

With ADSL (UniProt P30566), the log2 fold change was inactive: 0.027.

As to AKTIP isoform 2 (UniProt Q9H8T0), the log2 fold change is inactive: -0.274.

On to AIMP1 isoform 2 (UniProt Q12904), for which the log2 fold change is inactive: 0.029.

In the case of ALMS1 (UniProt Q8TCU4), the log2 fold change was inactive: 0.028.

On to ALAD isoform 2 (UniProt P13716), for which the log2 fold change is inactive: 0.002.

For the target AHCTF1 isoform 2 (UniProt Q8WYP5), the log2 fold change was inactive: 0.001.

For the target AKR7A2 (UniProt O43488), the log2 fold change is inactive: -0.033.

As to AGPAT2 (UniProt O15120), the log2 fold change is inactive: -0.07.

Regarding AGGF1 (UniProt Q8N302), the log2 fold change was inactive: -0.035.

In the case of ADPRM (UniProt Q3LIE5), the log2 fold change is inactive: -0.005.

On to ALG9 isoform 3 (UniProt Q9H6U8), for which the log2 fold change is inactive: -0.028.

On to AFTPH isoform 9 (UniProt Q6ULP2), for which the log2 fold change is inactive: -0.041.

For the target ALG6 (UniProt Q9Y672), the log2 fold change was inactive: -0.034.

With AMOTL1 (UniProt Q8IY63), the log2 fold change was inactive: 0.004.

As for ALAS1 (UniProt P13196), the log2 fold change was inactive: -0.006.

Consider AFG3L2 (UniProt Q9Y4W6), for which the log2 fold change is inactive: -0.024.

Consider AK2 isoform 2 (UniProt P54819), for which the log2 fold change was inactive: 0.006.

On to AEBP2 (UniProt Q6ZN18), for which the log2 fold change was inactive: 0.048.

As for AHSA1 (UniProt O95433), the log2 fold change is inactive: -0.035.

Take ADO (UniProt Q96SZ5): the log2 fold change is inactive: -0.019.

For AGPAT3 isoform 3 (UniProt Q9NRZ7), the log2 fold change was inactive: -0.012.

In the case of ADK (UniProt P55263), the log2 fold change was inactive: 0.026.

Consider AIFM2 (UniProt Q9BRQ8), for which the log2 fold change is inactive: 0.036.

AMDHD2 isoform 3 (UniProt Q9Y303): the log2 fold change is inactive: -0.02.

On to ADI1 (UniProt Q9BV57), for which the log2 fold change was inactive: -0.024.

Compound in a further assay: CC1=C(SC2=C1C(=N[C@H](C3=NN=C(N32)C)CC(=O)N)C4=CC=C(C=C4)Cl)C
Described as above. The essentials: as §1
As to AGL (UniProt P35573), the log2 fold change is inactive: -0.051.

For the target ALDH1L2 (UniProt Q3SY69), the log2 fold change was inactive: 0.098.

For AFG1L (UniProt Q8WV93), the log2 fold change is inactive: 0.096.

On to ADPGK (UniProt Q9BRR6), for which the log2 fold change is inactive: 0.039.

On to AMN1 (UniProt Q8IY45), for which the log2 fold change is inactive: -0.023.

On to AKR1C3 (UniProt P42330), for which the log2 fold change is inactive: 0.049.

Turning to AGPS (UniProt O00116), the log2 fold change was inactive: 0.081.

For ADPRHL2 (UniProt Q9NX46), the log2 fold change was inactive: 0.08.

Take AK6 (UniProt Q9Y3D8): the log2 fold change was inactive: 0.042.

For the target AIMP2 (UniProt Q13155), the log2 fold change is inactive: -0.154.

Turning to ANAPC1 (UniProt Q9H1A4), the log2 fold change is inactive: -0.023.

In the case of ADSL (UniProt P30566), the log2 fold change was inactive: 0.013.

As for AIMP1 isoform 2 (UniProt Q12904), the log2 fold change was inactive: -0.118.

ALAD isoform 2 (UniProt P13716): the log2 fold change was inactive: -0.049.

On to AHCTF1 isoform 2 (UniProt Q8WYP5), for which the log2 fold change was inactive: -0.025.

Consider AKR7A2 (UniProt O43488), for which the log2 fold change is inactive: 0.04.

Take AGPAT2 (UniProt O15120): the log2 fold change was inactive: 0.066.

With ALG9 isoform 3 (UniProt Q9H6U8), the log2 fold change was inactive: 0.031.

AFTPH isoform 9 (UniProt Q6ULP2): the log2 fold change is inactive: 0.

For the target ALG6 (UniProt Q9Y672), the log2 fold change was inactive: 0.047.

Regarding AFG3L2 (UniProt Q9Y4W6), the log2 fold change is inactive: 0.043.

For AK2 isoform 2 (UniProt P54819), the log2 fold change is inactive: 0.002.

In the case of AHSA1 (UniProt O95433), the log2 fold change is inactive: 0.063.

Take ADO (UniProt Q96SZ5): the log2 fold change was inactive: 0.046.

Turning to AGPAT3 isoform 3 (UniProt Q9NRZ7), the log2 fold change is inactive: 0.064.

With ADK (UniProt P55263), the log2 fold change was inactive: 0.036.

With AIFM2 (UniProt Q9BRQ8), the log2 fold change is inactive: 0.047.

Consider AMDHD2 isoform 3 (UniProt Q9Y303), for which the log2 fold change is inactive: 0.019.

On to ADI1 (UniProt Q9BV57), for which the log2 fold change is inactive: 0.005.

Compound in another assay: CC1=C2C(=CC=C1)N=C(N(C2=O)C3=CC=CC=C3C)CN4C=NC5=C(N=CN=C54)N
The description is as above. The essentials: as §1
Consider AGL (UniProt P35573), for which the log2 fold change was inactive: -0.049.

As for ALDH1L2 (UniProt Q3SY69), the log2 fold change is inactive: 0.

Turning to AFG1L (UniProt Q8WV93), the log2 fold change was inactive: -0.008.

Regarding ADPGK (UniProt Q9BRR6), the log2 fold change was inactive: 0.079.

As for AMN1 (UniProt Q8IY45), the log2 fold change was inactive: 0.287.

With AKR1C3 (UniProt P42330), the log2 fold change is inactive: 0.132.

With AGPS (UniProt O00116), the log2 fold change was inactive: 0.079.

Take ADPRHL2 (UniProt Q9NX46): the log2 fold change was inactive: 0.034.

Consider AK6 (UniProt Q9Y3D8), for which the log2 fold change was inactive: 0.2.

Turning to AIMP2 (UniProt Q13155), the log2 fold change was inactive: -0.124.

Consider ANAPC1 (UniProt Q9H1A4), for which the log2 fold change was inactive: 0.021.

Take ADSL (UniProt P30566): the log2 fold change is inactive: 0.002.

For the target AIMP1 isoform 2 (UniProt Q12904), the log2 fold change was inactive: -0.114.

As to ALAD isoform 2 (UniProt P13716), the log2 fold change is inactive: -0.035.

In the case of AHCTF1 isoform 2 (UniProt Q8WYP5), the log2 fold change was inactive: -0.213.

With AKR7A2 (UniProt O43488), the log2 fold change is inactive: -0.022.

Regarding AGPAT2 (UniProt O15120), the log2 fold change was inactive: -0.07.

As to ALG9 isoform 3 (UniProt Q9H6U8), the log2 fold change is inactive: -0.017.

With AFTPH isoform 9 (UniProt Q6ULP2), the log2 fold change is inactive: 0.046.

Take ALG6 (UniProt Q9Y672): the log2 fold change is inactive: 0.014.

For AFG3L2 (UniProt Q9Y4W6), the log2 fold change was inactive: 0.004.

For AK2 isoform 2 (UniProt P54819), the log2 fold change was inactive: 0.012.

On to AHSA1 (UniProt O95433), for which the log2 fold change was inactive: 0.015.

Regarding ADO (UniProt Q96SZ5), the log2 fold change is inactive: 0.03.

AGPAT3 isoform 3 (UniProt Q9NRZ7): the log2 fold change was inactive: 0.021.

Consider ADK (UniProt P55263), for which the log2 fold change is inactive: 0.154.

Turning to AIFM2 (UniProt Q9BRQ8), the log2 fold change is inactive: 0.026.

As for AMDHD2 isoform 3 (UniProt Q9Y303), the log2 fold change was inactive: 0.108.

For the target ADI1 (UniProt Q9BV57), the log2 fold change was inactive: 0.15.
